Experimental data as given in PubChem BioAssay AID248 (DTP/NCI, 2004).
The list does not hold the whole screen: it gathers tests that were run many times, whatever their T/C, doses with no T/C, and many T/C values between a quarter and a half above the control. Other doses and runs of a compound stand elsewhere. T/C gives the treated animals as a percentage of the vehicle group. Some doses have a count of surviving animals in place of a T/C: the source holds a T/C of zero for them, seemingly a mark for toxic or unscored doses. Some doses without a T/C left all or most animals alive at the check, yet need not have been tolerated: survival well below the control is almost never listed, so the zero probably covers shortened survival too. Counts of survivors are from the toxicity check (mostly the fifth day) where no day follows; animals may have died later. Schedule codes are those of the source, taken here to give the interval after Q, in days (D) or hours (H), and the number of doses after X. Some entries were tested several times; the results are listed from low to high. Additions like (4×) give the number of equal values in this list. Where survival is the endpoint, this PubChem deposit counts one and a half times the control or more as active, and values a quarter to a half above the control carry no call in these data; other NCI protocols may use other cut-offs. Some T/C values carry the count of animals alive at the toxicity check (mostly the fifth day); without a count, all were alive then. Some schedules carry Z or #; the key to these is not given.

System: L1210 leukemia ip in BDF1 mice, survival T/C
Test: NCI In Vivo Anticancer Drug Screen. Data for tumor model L1210 Leukemia (intraperitoneal) in B6D2F1 (BDF1) mice
Details: T/C endpoint: median survival time, higher T/C = longer survival
[1] = dose: 16.0 mg/kg/injection, schedule: Q01DX009 (ip), vehicle: saline
[2] = dose: 40.0 mg/kg/injection, schedule: Q04DX003 (ip), vehicle: saline

`N[C@@H](Cc1ccc(N(CCCl)CCCl)cc1)C(=O)O` was tested, and the T/C (dose: 1.0 mg/kg/injection, schedule: Q01DX009 (ip), vehicle: saline, evaluated on day 30) was 137 % of control, the T/C (dose: 1.0 mg/kg/injection, schedule: Q01DX009 (ip), vehicle: saline, evaluated on day 33) was 131 [6 of 8 alive], 143, 153 % of control and the T/C (dose: 2.0 mg/kg/injection, schedule: Q01DX009 (ip), vehicle: saline, evaluated on day 5) was 106, 142, 167, 169, 174 % of control. For the same compound, the T/C (dose: 2.0 mg/kg/injection, schedule: Q01DX009 (ip), vehicle: saline, evaluated on day 24) was 106 % of control [9 of 10 alive], the T/C (dose: 2.0 mg/kg/injection, schedule: Q01DX009 (ip), vehicle: saline, evaluated on day 30) was 142 % of control and the T/C (dose: 2.0 mg/kg/injection, schedule: Q01DX009 (ip), vehicle: saline, evaluated on day 33) was 168, 169, 175 % of control. The T/C (dose: 2.5 mg/kg/injection, schedule: Q01DX001 (ip), vehicle: Klucel (hydroxypropylcellulose) (HPC), evaluated on day 5) was 138 % of control, the T/C (dose: 2.5 mg/kg/injection, schedule: Q01DX001 (ip), vehicle: Klucel (hydroxypropylcellulose) (HPC), evaluated on day 60) was 133 and 138 % of control and the T/C (dose: 2.5 mg/kg/injection, schedule: Q01DX001 (ip), vehicle: saline, evaluated on day 5) was 116, 122, 133, 141 % of control. The T/C (dose: 2.5 mg/kg/injection, schedule: Q01DX001 (ip), vehicle: saline, evaluated on day 7) was 107, 112, 127 % of control, the T/C (dose: 2.5 mg/kg/injection, schedule: Q01DX001 (ip), vehicle: saline, evaluated on day 30) was 116 and 133 % of control and the T/C (dose: 2.5 mg/kg/injection, schedule: Q01DX001 (ip), vehicle: saline, evaluated on day 31) was 141 % of control. The T/C (dose: 2.5 mg/kg/injection, schedule: Q01DX001 (ip), vehicle: saline, evaluated on day 60) was 122 % of control, the T/C (dose: 2.5 mg/kg/injection, schedule: Q01DX001 (ip), vehicle: saline, evaluated on day 62) was 127 % of control and the T/C (dose: 2.5 mg/kg/injection, schedule: Q01DX001 (ip), vehicle: saline, evaluated on day 63) was 107 [7 of 8 alive] and 112 % of control. For the same compound, the T/C (dose: 2.5 mg/kg/injection, schedule: Q04DX003 (ip), vehicle: saline, evaluated on day 5) was 135 and 142 % of control, the T/C (dose: 2.5 mg/kg/injection, schedule: Q04DX003 (ip), vehicle: saline, evaluated on day 30) was 142 % of control and the T/C (dose: 2.5 mg/kg/injection, schedule: Q04DX003 (ip), vehicle: saline, evaluated on day 60) was 135 % of control. The T/C (dose: 2.5 mg/kg/injection, schedule: Q##DX001 (ip), vehicle: Klucel (hydroxypropylcellulose) (HPC)) was 133 % of control, the T/C (dose: 4.0 mg/kg/injection, schedule: Q01DX009 (ip), vehicle: saline, evaluated on day 5) was 143, 144, 158, 161, 163 % of control and the T/C (dose: 4.0 mg/kg/injection, schedule: Q01DX009 (ip), vehicle: saline, evaluated on day 24) was 163 % of control. The T/C (dose: 4.0 mg/kg/injection, schedule: Q01DX009 (ip), vehicle: saline, evaluated on day 30) was 161 % of control, the T/C (dose: 4.0 mg/kg/injection, schedule: Q01DX009 (ip), vehicle: saline, evaluated on day 33) was 144 (2×) and 158 % of control and the T/C (dose: 5.0 mg/kg/injection, schedule: Q01DX001 (ip), vehicle: Klucel (hydroxypropylcellulose) (HPC)) was 146 % of control. The T/C (dose: 5.0 mg/kg/injection, schedule: Q01DX001 (ip), vehicle: saline, evaluated on day 5) was 125, 130, 140, 141 (2×), 145 % of control (2×), the T/C (dose: 5.0 mg/kg/injection, schedule: Q01DX001 (ip), vehicle: saline, evaluated on day 7) was 116, 117, 153 % of control and the T/C (dose: 5.0 mg/kg/injection, schedule: Q01DX001 (ip), vehicle: saline, evaluated on day 30) was 140 and 141 % of control. The T/C (dose: 5.0 mg/kg/injection, schedule: Q01DX001 (ip), vehicle: saline, evaluated on day 31) was 145 % of control, the T/C (dose: 5.0 mg/kg/injection, schedule: Q01DX001 (ip), vehicle: saline, evaluated on day 33) was 130 % of control and the T/C (dose: 5.0 mg/kg/injection, schedule: Q01DX001 (ip), vehicle: saline, evaluated on day 47) was 145 % of control. The T/C (dose: 5.0 mg/kg/injection, schedule: Q01DX001 (ip), vehicle: saline, evaluated on day 60) was 125 and 141 % of control, the T/C (dose: 5.0 mg/kg/injection, schedule: Q01DX001 (ip), vehicle: saline, evaluated on day 62) was 153 % of control and the T/C (dose: 5.0 mg/kg/injection, schedule: Q01DX001 (ip), vehicle: saline, evaluated on day 63) was 116 and 117 % of control. The T/C (dose: 5.0 mg/kg/injection, schedule: Q04DX003 (ip), vehicle: saline, evaluated on day 5) was 151 and 162 % of control, the T/C (dose: 5.0 mg/kg/injection, schedule: Q04DX003 (ip), vehicle: saline, evaluated on day 30) was 162 % of control and the T/C (dose: 5.0 mg/kg/injection, schedule: Q04DX003 (ip), vehicle: saline, evaluated on day 60) was 151 % of control. The T/C (dose: 5.0 mg/kg/injection, schedule: Q##DX001 (ip), vehicle: Klucel (hydroxypropylcellulose) (HPC)) was 146 % of control, the survivor count (dose: 6.0 mg/kg/injection, schedule: Q01DX009 (ip), vehicle: saline) was 8 of 8 and the T/C (dose: 8.0 mg/kg/injection, schedule: Q01DX009 (ip), vehicle: saline, evaluated on day 5) was 83, 93, 98, 108 % of control. The T/C (dose: 8.0 mg/kg/injection, schedule: Q01DX009 (ip), vehicle: saline, evaluated on day 24) was 108 % of control, the T/C (dose: 8.0 mg/kg/injection, schedule: Q01DX009 (ip), vehicle: saline, evaluated on day 30) was 93 % of control and the T/C (dose: 8.0 mg/kg/injection, schedule: Q01DX009 (ip), vehicle: saline, evaluated on day 33) was 98 % of control. For the same compound, the survivor count (dose: 8.0 mg/kg/injection, schedule: Q01DX009 (ip), vehicle: saline) was 8 of 8, the T/C (dose: 10.0 mg/kg/injection, schedule: Q01DX001 (ip), vehicle: saline, evaluated on day 5) was 140, 152, 157 (2×), 159, 161, 170 % of control and the T/C (dose: 10.0 mg/kg/injection, schedule: Q01DX001 (ip), vehicle: saline, evaluated on day 7) was 133, 144, 195 % of control. For the same compound, the T/C (dose: 10.0 mg/kg/injection, schedule: Q01DX001 (ip), vehicle: saline, evaluated on day 30) was 152 and 157 % of control, the T/C (dose: 10.0 mg/kg/injection, schedule: Q01DX001 (ip), vehicle: saline, evaluated on day 31) was 170 % of control and the T/C (dose: 10.0 mg/kg/injection, schedule: Q01DX001 (ip), vehicle: saline, evaluated on day 33) was 159 % of control. For the same compound, the T/C (dose: 10.0 mg/kg/injection, schedule: Q01DX001 (ip), vehicle: saline, evaluated on day 47) was 157 % of control, the T/C (dose: 10.0 mg/kg/injection, schedule: Q01DX001 (ip), vehicle: saline, evaluated on day 60) was 140 and 161 % of control and the T/C (dose: 10.0 mg/kg/injection, schedule: Q01DX001 (ip), vehicle: saline, evaluated on day 62) was 195 % of control. For the same compound, the T/C (dose: 10.0 mg/kg/injection, schedule: Q01DX001 (ip), vehicle: saline, evaluated on day 63) was 133 and 144 % of control, the T/C (dose: 10.0 mg/kg/injection, schedule: Q04DX003 (ip), vehicle: saline, evaluated on day 5) was 131 and 207 % of control and the T/C (dose: 10.0 mg/kg/injection, schedule: Q04DX003 (ip), vehicle: saline, evaluated on day 30) was 131 % of control. The T/C (dose: 10.0 mg/kg/injection, schedule: Q04DX003 (ip), vehicle: saline, evaluated on day 60) was 207 % of control, the T/C [1] was 60 and 61 % of control and the survivor count [1] was 6 of 8 and 7 of 8. The T/C (dose: 20.0 mg/kg/injection, schedule: Q01DX001 (ip), vehicle: Klucel (hydroxypropylcellulose) (HPC), evaluated on day 5) was 134 % of control, the T/C (dose: 20.0 mg/kg/injection, schedule: Q01DX001 (ip), vehicle: Klucel (hydroxypropylcellulose) (HPC), evaluated on day 60) was 134 % of control [7 of 10 alive] and the survivor count (dose: 20.0 mg/kg/injection, schedule: Q01DX001 (ip), vehicle: Klucel (hydroxypropylcellulose) (HPC)) was 5 of 10. The T/C (dose: 20.0 mg/kg/injection, schedule: Q01DX001 (ip), vehicle: saline, evaluated on day 5) was 70, 72, 97, 135, 164, 170, 178 % of control, the T/C (dose: 20.0 mg/kg/injection, schedule: Q01DX001 (ip), vehicle: saline, evaluated on day 7) was 145, 184, 186 % of control and the T/C (dose: 20.0 mg/kg/injection, schedule: Q01DX001 (ip), vehicle: saline, evaluated on day 30) was 97 and 164 % of control [6 of 8 alive]. The T/C (dose: 20.0 mg/kg/injection, schedule: Q01DX001 (ip), vehicle: saline, evaluated on day 33) was 178 % of control, the T/C (dose: 20.0 mg/kg/injection, schedule: Q01DX001 (ip), vehicle: saline, evaluated on day 60) was 135 % of control and the T/C (dose: 20.0 mg/kg/injection, schedule: Q01DX001 (ip), vehicle: saline, evaluated on day 62) was 184 % of control [6 of 8 alive]. For the same compound, the T/C (dose: 20.0 mg/kg/injection, schedule: Q01DX001 (ip), vehicle: saline, evaluated on day 63) was 145 and 186 % of control, the survivor count (dose: 20.0 mg/kg/injection, schedule: Q01DX001 (ip), vehicle: saline) was 5 of 8 and 6 of 8 (2×) and the T/C (dose: 20.0 mg/kg/injection, schedule: Q04DX003 (ip), vehicle: saline, evaluated on day 5) was 75 and 91 % of control. For the same compound, the T/C (dose: 20.0 mg/kg/injection, schedule: Q04DX003 (ip), vehicle: saline, evaluated on day 60) was 91 % of control, the survivor count (dose: 20.0 mg/kg/injection, schedule: Q04DX003 (ip), vehicle: saline) was 6 of 8 and the survivor count (dose: 40.0 mg/kg/injection, schedule: Q01DX001 (ip), vehicle: Klucel (hydroxypropylcellulose) (HPC)) was 2 of 10 and 5 of 10. For the same compound, the T/C (dose: 40.0 mg/kg/injection, schedule: Q01DX001 (ip), vehicle: saline, evaluated on day 5) was 58, 60, 61 (2×), 62, 170 % of control, the T/C (dose: 40.0 mg/kg/injection, schedule: Q01DX001 (ip), vehicle: saline, evaluated on day 7) was 71, 80, 99 % of control and the T/C (dose: 40.0 mg/kg/injection, schedule: Q01DX001 (ip), vehicle: saline, evaluated on day 33) was 170 % of control. For the same compound, the T/C (dose: 40.0 mg/kg/injection, schedule: Q01DX001 (ip), vehicle: saline, evaluated on day 63) was 99 % of control, the survivor count (dose: 40.0 mg/kg/injection, schedule: Q01DX001 (ip), vehicle: saline) was 2 of 8, 3 of 8, 4 of 8 (2×), 5 of 8, 6 of 8, 7 of 8 and the T/C [2] was 55 and 61 % of control. The survivor count [2] was 3 of 8 and 6 of 8 and the survivor count (dose: 80.0 mg/kg/injection, schedule: Q01DX001 (ip), vehicle: saline) was 1 of 8.
